Test results as given in article doi:10.1101/2021.10.05.463166.
These are yes or no findings as the source states them, for the method shown. In cells and extracts the contact can be indirect. Some entries that bind do so weakly or less than the wild type.

Chains of the proteins cited; added tags and fusions are not shown.
UniProt O15392: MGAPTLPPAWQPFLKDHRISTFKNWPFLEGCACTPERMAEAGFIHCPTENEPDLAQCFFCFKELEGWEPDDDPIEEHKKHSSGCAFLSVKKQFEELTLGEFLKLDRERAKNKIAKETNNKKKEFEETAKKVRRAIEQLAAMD
UniProt P84022: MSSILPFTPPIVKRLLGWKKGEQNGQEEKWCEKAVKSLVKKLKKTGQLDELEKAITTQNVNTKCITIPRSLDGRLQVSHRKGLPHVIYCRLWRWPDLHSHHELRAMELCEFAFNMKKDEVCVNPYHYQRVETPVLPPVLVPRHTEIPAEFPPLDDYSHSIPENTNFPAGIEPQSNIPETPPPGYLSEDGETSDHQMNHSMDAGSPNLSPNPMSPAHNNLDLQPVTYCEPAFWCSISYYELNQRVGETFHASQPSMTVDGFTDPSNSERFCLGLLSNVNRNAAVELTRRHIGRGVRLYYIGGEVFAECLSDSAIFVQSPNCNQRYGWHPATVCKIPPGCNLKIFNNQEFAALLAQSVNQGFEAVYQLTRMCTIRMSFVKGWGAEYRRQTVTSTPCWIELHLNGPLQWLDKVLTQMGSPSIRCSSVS
UniProt P05412: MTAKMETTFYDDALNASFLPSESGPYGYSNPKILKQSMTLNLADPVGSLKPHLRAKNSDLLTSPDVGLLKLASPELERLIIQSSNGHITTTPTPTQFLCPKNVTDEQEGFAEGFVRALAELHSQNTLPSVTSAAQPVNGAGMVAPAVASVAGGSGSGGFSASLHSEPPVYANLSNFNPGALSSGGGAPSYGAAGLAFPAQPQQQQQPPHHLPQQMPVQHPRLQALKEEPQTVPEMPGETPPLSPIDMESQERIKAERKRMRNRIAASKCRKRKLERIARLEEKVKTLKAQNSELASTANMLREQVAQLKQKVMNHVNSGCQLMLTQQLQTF

B1: IRF8 (protein, UniProt Q02556 1-426)
chain: MCDRNGGRRLRQWLIEQIDSSMYPGLIWENEEKSMFRIPWKHAGKQDYNQEVDASIFKAWAVFKGKFKEGDKAEPATWKTRLRCALNKSPDFEEVTDRSQLDISEPYKVYRIVPEEEQKCKLGVATAGCVNEVTEMECGRSEIDELIKEPSVDDYMGMIKRSPSPPEACRSQLLPDWWAQQPSTGVPLVTGYTTYDAHHSAFSQMVISFYYGGKLVGQATTTCPEGCRLSLSQPGLPGTKLYGPEGLELVRFPPADAIPSERQRQVTRKLFGHLERGVLLHSSRQGVFVKRLCQGRVFCSGNAVVCKGRPNKLERDEVVQVFDTSQFFRELQQFYNSQGRLPDGRVVLCFGEEFPDMAPLRSKLILVQIEQLYVRQLAEEAGKSCGAGSVMQAPEEPPPDQVFRMFPDICASHQRSFFRENQQITV
B2: IRF1 (protein, UniProt P10914 1-325)
chain: MPITRMRMRPWLEMQINSNQIPGLIWINKEEMIFQIPWKHAAKHGWDINKDACLFRSWAIHTGRYKAGEKEPDPKTWKANFRCAMNSLPDIEEVKDQSRNKGSSAVRVYRMLPPLTKNQRKERKSKSSRDAKSKAKRKSCGDSSPDTFSDGLSSSTLPDDHSSYTVPGYMQDLEVEQALTPALSPCAVSSTLPDWHIPVEVVPDSTSDLYNFQVSPMPSTSEATTDEDEEGKLPEDIMKLLEQSEWQPTNVDGKGYLLNEPGVQPTSVYGDFSCKEEPEIDSPGGDIGLSLQRVFTDLKNMDATWLDSLLTPVRLPSIQAIPCAP
B3: JUND (protein, UniProt P17535 1-347)
chain: METPFYGDEALSGLGGGASGSGGSFASPGRLFPGAPPTAAAGSMMKKDALTLSLSEQVAAALKPAAAPPPTPLRADGAPSAAPPDGLLASPDLGLLKLASPELERLIIQSNGLVTTTPTSSQFLYPKVAASEEQEFAEGFVKALEDLHKQNQLGAGAAAAAAAAAAGGPSGTATGSAPPGELAPAAAAPEAPVYANLSSYAGGAGGAGGAATVAFAAEPVPFPPPPPPGALGPPRLAALKDEPQTVPDVPSFGESPPLSPIDMDTQERIKAERKRLRNRIAASKCRKRKLERISRLEEKVKTLKSQNTELASTASLLREQVAQLKQKVLSHVNSGCQLLPQHQVPAY

What follows are molecules tested against survivin (human (endogenous in THP-1)) (UniProt O15392) (assay: co-IP).
In the case of SMAD3 (from UniProt P84022 1-425), the binding is reported as “binds”.
In the case of JUN (from UniProt P05412 1-331), the binding is reported as “no binding”.
In the case of B1, the binding is reported as “no binding”.
B2 was tested, and the binding was “binds”.
With B3 the binding was “no binding”.
